The source of these data is the supplement of paper PMC8728848.

The list shows a part of the results.

What all share (assay): glycan array binding signal (z-score within array); higher = stronger binding
What all share (settings): glycan notation: IUPAC condensed, linker removed

The target of one assay is Fuc(a1-2)Gal. The essentials: (§1)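 The binding signal is a Z-score computed within each array. Data were drawn from 3228 arrays in the Consortium for Functional Glycomics database, restricted to those with a known protein sequence. Scores were averaged over arrays of the same protein sequence at different concentrations or buffers, and over linkers, and negative values can be taken as non-binding.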

Another assay has as its target Fuc(a1-2)Gal(b1-3)GalNAc. A digest of the protocol:
as §1

In assay [1] the target is Fuc(a1-2)Gal(b1-3)GalNAc(b1-3)Gal. A digest of the protocol:
as §1

The target in assay [2] is Fuc(a1-2)Gal(b1-3)GalNAc(b1-3)Gal(a1-4)Gal(b1-4)Glc. The essentials: as §1
Assay [3] deals with Fuc(a1-2)Gal(b1-3)GalNAc(b1-4)[Neu5Ac(a2-3)]Gal(b1-4)Glc. The essentials: as §1
Another assay concerns the target Fuc(a1-2)Gal(b1-3)GlcNAc. A digest of the protocol:
as §1

For assay [4], the target named is Fuc(a1-2)Gal(b1-3)GlcNAc(b1-2)Man(a1-3)[Fuc(a1-2)Gal(b1-3)GlcNAc(b1-2)Man(a1-6)]Man(b1-4)GlcNAc(b1-4)GlcNAc. A digest of the protocol: as §1
Assay [5] has as its target Fuc(a1-2)Gal(b1-3)GlcNAc(b1-3)Gal(b1-4)Glc. A digest of the protocol: as §1
Assay [6] addresses Fuc(a1-2)Gal(b1-3)GlcNAc(b1-3)[Gal(b1-4)[Fuc(a1-3)]GlcNAc(b1-6)]Gal(b1-4)Glc. A digest of the protocol: as §1
The target of assay [7] is Fuc(a1-2)Gal(b1-3)[Fuc(a1-4)]GlcNAc. The essentials: as §1
Assay [8] addresses Fuc(a1-2)Gal(b1-3)[Fuc(a1-4)]GlcNAc(b1-2)Man(a1-3)[Fuc(a1-2)Gal(b1-3)[Fuc(a1-4)]GlcNAc(b1-2)Man(a1-6)]Man(b1-4)GlcNAc(b1-4)GlcNAc. A digest of the protocol:
as §1

The target in another assay is Fuc(a1-2)Gal(b1-4)Glc. A digest of the protocol: as §1
The target in another assay is Fuc(a1-2)Gal(b1-4)Glc6S. A digest of the protocol:
as §1

For a further assay, the target named is Fuc(a1-2)Gal(b1-4)GlcNAc. The essentials:
as §1

Assay [9] addresses Fuc(a1-2)Gal(b1-4)GlcNAc(b1-2)Man(a1-3)[Fuc(a1-2)Gal(b1-4)GlcNAc(b1-2)Man(a1-6)]Man(b1-4)GlcNAc(b1-4)GlcNAc. A digest of the protocol:
as §1

The target of assay [10] is Fuc(a1-2)Gal(b1-4)GlcNAc(b1-3)Gal(b1-4)GlcNAc. The essentials: as §1
Assay [11] concerns the target Fuc(a1-2)Gal(b1-4)GlcNAc(b1-3)Gal(b1-4)GlcNAc(b1-3)Gal(b1-4)GlcNAc. A digest of the protocol: as §1
Assay [12] deals with Fuc(a1-2)Gal(b1-4)GlcNAc6S. The essentials:
as §1

For assay [13], the target named is Fuc(a1-2)Gal(b1-4)[Fuc(a1-3)]GlcNAc. A digest of the protocol: as §1
Assay [14] concerns the target Fuc(a1-2)Gal(b1-4)[Fuc(a1-3)]GlcNAc(b1-2)Man(a1-3)[Fuc(a1-2)Gal(b1-4)[Fuc(a1-3)]GlcNAc(b1-2)Man(a1-6)]Man(b1-4)GlcNAc(b1-4)GlcNAc. A digest of the protocol: as §1
The target in assay [15] is Fuc(a1-2)Gal(b1-4)[Fuc(a1-3)]GlcNAc(b1-3)Gal(b1-4)[Fuc(a1-3)]GlcNAc. The essentials: as §1
Assay [16] deals with Fuc(a1-2)Gal(b1-4)[Fuc(a1-3)]GlcNAc(b1-3)Gal(b1-4)[Fuc(a1-3)]GlcNAc(b1-3)Gal(b1-4)[Fuc(a1-3)]GlcNAc. A digest of the protocol:
as §1

B1: Spy 2007 (Streptococcus pyogenes), Q99XV3 (protein)
chain: MKKGFFLMAMVVSLVMIAGCDKSANPKQPTQGMSVVTSFYPMYAMTKEVSGDLNDVRMIQSGAGIHSFEPSVNDVAAIYDADLFVYHSHTLEAWARDLDPNLKKSKVDVFEASKPLTLDRVKGLEDMEVTQGIDPATLYDPHTWTDPVLAGEEAVNIAKELGRLDPKHKDSYTKNAKAFKKEAEQLTEEYTQKFKKVRSKTFVTQHTAFSYLAKRFGLKQLGISGISPEQEPSPRQLKEIQDFVKEYNVKTIFAEDNVNPKIAHAIAKSTGAKVKTLSPLEAAPSGNKTYLENLRANLEVLYQQLK
On to B1, for which the “glycan array binding signal (z-score)” value is 2.07 with Fuc(a1-2)Gal; -0.465 in the assay with Fuc(a1-2)Gal(b1-3)GalNAc; -0.204 in assay [1]; -0.587 in [2]; -0.602 in [3]; -0.387 with Fuc(a1-2)Gal(b1-3)GlcNAc. The “glycan array binding signal (z-score)” value in assay [4] was 0.811; in assay [5], -0.532; in assay [6] it was -0.69; in assay [7] it was -0.561; in assay [8], 0.064; in the assay with Fuc(a1-2)Gal(b1-4)Glc, -0.353. The “glycan array binding signal (z-score)” value with Fuc(a1-2)Gal(b1-4)Glc6S is 0.714; with Fuc(a1-2)Gal(b1-4)GlcNAc, 0.299; in assay [9], -0.01; in assay [10] it was -0.495; in assay [11], -0.125; in [12], -0.056. Moreover, the “glycan array binding signal (z-score)” value in assay [13] was -0.671; in [14] it was 0.69; in assay [15], -0.862; in assay [16] it was 0.084.
